Assay results taken from article PMC7862700.
The list shows a part of the results, in another mix than the full data. At the low end of the ranking the order means little.

By UniProt entry, the sequences of proteins in these tests, tags left out. Where a name states a change or a piece, a line headed by the entry shows the natural chain unless it says otherwise.
UniProt Q9Y603: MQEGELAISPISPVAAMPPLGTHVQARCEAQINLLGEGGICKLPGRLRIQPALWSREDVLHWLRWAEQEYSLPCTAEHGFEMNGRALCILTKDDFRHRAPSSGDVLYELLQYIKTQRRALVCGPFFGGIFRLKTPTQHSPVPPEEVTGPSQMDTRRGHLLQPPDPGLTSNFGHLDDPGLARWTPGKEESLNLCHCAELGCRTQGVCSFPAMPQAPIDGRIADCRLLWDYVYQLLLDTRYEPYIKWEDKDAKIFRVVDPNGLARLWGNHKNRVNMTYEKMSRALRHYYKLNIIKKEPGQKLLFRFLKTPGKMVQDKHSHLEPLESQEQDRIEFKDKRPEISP
UniProt P41212: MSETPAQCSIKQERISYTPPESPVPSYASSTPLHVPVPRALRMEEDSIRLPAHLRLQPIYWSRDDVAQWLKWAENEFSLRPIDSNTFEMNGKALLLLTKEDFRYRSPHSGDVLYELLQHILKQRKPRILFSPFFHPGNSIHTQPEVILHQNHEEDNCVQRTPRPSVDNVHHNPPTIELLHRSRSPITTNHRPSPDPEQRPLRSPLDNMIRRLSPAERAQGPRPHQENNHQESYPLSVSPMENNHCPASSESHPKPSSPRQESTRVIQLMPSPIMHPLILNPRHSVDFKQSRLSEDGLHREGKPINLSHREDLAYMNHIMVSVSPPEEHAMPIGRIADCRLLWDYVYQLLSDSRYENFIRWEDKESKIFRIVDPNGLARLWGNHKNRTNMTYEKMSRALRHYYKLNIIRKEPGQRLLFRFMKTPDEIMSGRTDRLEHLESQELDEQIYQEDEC

Each sequence was assayed against ETV7 (UniProt Q9Y603) (assay: DAPPL (digital affinity profiling via proximity ligation, sequencing)). Conditions: 10 mM Tris-HCl pH 7.5, 50 mM NaCl, 1 mM DTT, 4% glycerol, room temperature, 30 min; GST-TFs on glutathione beads, 16-mer random dsDNA library, 0.1% …; high values mean tight binding; double strand, one strand shown; scale: fold enrichment (6-mer frequency, TF over GST control).

Question: AAGGTA was tested. Which binding signal did it give?
Answer: 1.18

Question: TTGGGT was tested. Which binding signal did it give?
Answer: 1.08

Question: How did the binding signal turn out when GGCTCA was run?
Answer: 1.15

Question: CTGGTT was tested. Which binding signal did it give?
Answer: 1.28

Question: Which binding signal does the source give for TCGACT here?
Answer: 1.32

Question: Which binding signal does the source give for ATGGAA here?
Answer: 1.35

Question: With GAACCA as the sequence, how does the binding signal read?
Answer: 0.938

Question: For TGACCT, which binding signal is on record?
Answer: 1.75

Question: CGCTAG was tested. Which binding signal did it give?
Answer: 0.911

Question: Which binding signal does the source give for CGACTA here?
Answer: 1.31

Question: CCCCCG was tested. Which binding signal did it give?
Answer: 1.05

Question: TAATAG was tested. Which binding signal did it give?
Answer: 1.2

Question: With GGTCTT as the sequence, how does the binding signal read?
Answer: 1.19

Question: Which binding signal does the source give for CTGCGA here?
Answer: 1.26

Question: For TTTCCT, which binding signal is on record?
Answer: 2.31

Question: For GCTCGT, which binding signal is on record?
Answer: 1.11

Question: Which binding signal does the source give for CCGAAG here?
Answer: 0.953

Question: Which binding signal does the source give for ATCTGT here?
Answer: 1.21

Question: How did the binding signal turn out when TCTTGA was run?
Answer: 1.22

Question: Which binding signal does the source give for AGGAAA here?
Answer: 1.46

Question: Which binding signal does the source give for TCATGC here?
Answer: 1.17

Question: For GAAATA, which binding signal is on record?
Answer: 1.6

The sequences below were run against ETV6 (UniProt P41212) in the same assay as above. Conditions: 10 mM Tris-HCl pH 7.5, 50 mM NaCl, 1 mM DTT, 4% glycerol, room temperature, 30 min; GST-TFs on glutathione beads, 16-mer random dsDNA library, 0.1% …; high values mean tight binding; double strand, one strand shown; scale: fold enrichment (6-mer frequency, TF over GST control).

Question: CTGCAC was tested. Which binding signal did it give?
Answer: 1.24

Question: With AAGGTA as the sequence, how does the binding signal read?
Answer: 1.19

Question: Which binding signal does the source give for ATACGT here?
Answer: 1.14

Question: For CTCAAT, which binding signal is on record?
Answer: 1.23

Question: TTGGGT was tested. Which binding signal did it give?
Answer: 0.994

Question: GGCTCA was tested. Which binding signal did it give?
Answer: 1.26

Question: CTGGTT was tested. Which binding signal did it give?
Answer: 1.32

Question: With TCGACT as the sequence, how does the binding signal read?
Answer: 1.35

Question: With ATGGAA as the sequence, how does the binding signal read?
Answer: 1.28

Question: GAACCA was tested. Which binding signal did it give?
Answer: 0.959

Question: Which binding signal does the source give for TCGAAT here?
Answer: 1.13

Question: For GAAGTT, which binding signal is on record?
Answer: 1.93

Question: AGATCC was tested. Which binding signal did it give?
Answer: 1.1

Question: With TGACCT as the sequence, how does the binding signal read?
Answer: 1.66

Question: Which binding signal does the source give for CGCTAG here?
Answer: 1.04

Question: With CGACTA as the sequence, how does the binding signal read?
Answer: 1.28

Question: CTGGAT was tested. Which binding signal did it give?
Answer: 1.21

Question: For CCCCCG, which binding signal is on record?
Answer: 1.12

Question: How did the binding signal turn out when TAATAG was run?
Answer: 1.14

Question: GGTCTT was tested. Which binding signal did it give?
Answer: 0.976

Question: With TTTTTA as the sequence, how does the binding signal read?
Answer: 1.33

Question: How did the binding signal turn out when TTATGT was run?
Answer: 1.43

Question: How did the binding signal turn out when AACATA was run?
Answer: 1.27

Question: Which binding signal does the source give for ATCCCT here?
Answer: 1.23

Question: How did the binding signal turn out when TTTTCA was run?
Answer: 1.21

Question: TCACAG was tested. Which binding signal did it give?
Answer: 1.11

Question: Which binding signal does the source give for CTGCGA here?
Answer: 1.29

Question: TTTCCT was tested. Which binding signal did it give?
Answer: 2.86

Question: For TGGTAG, which binding signal is on record?
Answer: 0.961

Question: Which binding signal does the source give for GCTCGT here?
Answer: 1.16

Question: CCGAAG was tested. Which binding signal did it give?
Answer: 0.974

Question: With ATCTGT as the sequence, how does the binding signal read?
Answer: 1.12

Question: How did the binding signal turn out when TCTAGT was run?
Answer: 1.12

Question: With TTCCCC as the sequence, how does the binding signal read?
Answer: 1.73

Question: Which binding signal does the source give for TCTTGA here?
Answer: 1.24

Question: For AGGAAA, which binding signal is on record?
Answer: 1.75

Question: Which binding signal does the source give for TCATGC here?
Answer: 1.11

Question: Which binding signal does the source give for TCCGGC here?
Answer: 2.28

Question: How did the binding signal turn out when GAAATA was run?
Answer: 1.75
